Results published in PubChem BioAssay (Tox21).
Where “and” joins values, the source holds several entries; their conditions need not be identical. Identical values can stand only once. Inconclusive results, whose numbers are uncertain, are shown with a selection of clear calls. A potency beside an inconclusive call is a rough fit, not a confirmed value. Calls of active or inactive are those of the source. Unless noted, calls come from the whole dose curve.

Amino acid sequences for entries named in this document (tags omitted).
UniProt P14416, whole entry, looked up: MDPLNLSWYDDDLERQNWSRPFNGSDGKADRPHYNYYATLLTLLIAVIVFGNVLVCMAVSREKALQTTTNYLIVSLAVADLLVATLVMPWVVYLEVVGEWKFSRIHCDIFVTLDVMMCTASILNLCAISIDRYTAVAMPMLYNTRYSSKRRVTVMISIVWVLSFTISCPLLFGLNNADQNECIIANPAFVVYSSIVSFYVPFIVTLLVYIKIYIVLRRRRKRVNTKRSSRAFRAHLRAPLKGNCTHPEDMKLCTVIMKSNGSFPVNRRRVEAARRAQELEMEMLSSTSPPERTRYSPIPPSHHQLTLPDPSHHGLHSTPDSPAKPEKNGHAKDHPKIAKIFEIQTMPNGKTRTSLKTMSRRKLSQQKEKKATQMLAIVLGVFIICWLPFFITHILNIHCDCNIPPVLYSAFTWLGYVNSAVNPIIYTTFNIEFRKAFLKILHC
UniProt P28223, whole entry, looked up: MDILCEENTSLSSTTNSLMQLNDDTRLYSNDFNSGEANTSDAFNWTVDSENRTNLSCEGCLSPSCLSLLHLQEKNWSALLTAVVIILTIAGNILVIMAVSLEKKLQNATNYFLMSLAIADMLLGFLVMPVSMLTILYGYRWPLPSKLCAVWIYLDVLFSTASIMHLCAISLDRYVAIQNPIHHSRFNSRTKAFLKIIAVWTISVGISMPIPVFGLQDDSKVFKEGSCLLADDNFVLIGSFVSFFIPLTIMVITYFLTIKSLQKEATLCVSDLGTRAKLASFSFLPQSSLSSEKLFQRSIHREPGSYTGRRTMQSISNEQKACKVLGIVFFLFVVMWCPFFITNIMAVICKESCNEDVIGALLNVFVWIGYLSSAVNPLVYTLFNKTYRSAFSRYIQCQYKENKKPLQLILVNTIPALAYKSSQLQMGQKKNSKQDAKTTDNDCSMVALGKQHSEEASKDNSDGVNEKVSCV

What was measured:
[1] = Nuclear factor erythroid 2-related factor 2/antioxidant responsive element (Nrf2/ARE) small molecule agonists: luciferase reporter gene qHTS assay in human keratinocytes (AID 1919969); note: nearly all actives have a fitted effect of over 35% in size
[2] = p53 small molecule agonists, cell-based qHTS assay with human liver microsomes (AID 1963577); settings: HCT-116 p53RE-bla with human liver microsomes, ratio, 16 h; activation: at 66 µM (top of the series) unless noted;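 for activation: p53 response element beta-lactamase reporter cells with liver microsomes plus NADPH; % is set by controls: 0 for no effect and ±100 for the full control effect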
Procedure, shortened: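 Reporter activation was measured by LiveBLAzer fluorescence intensity in p53RE-bla cells, which had been exposed to compounds for 16 h at 37 C alongside 0.5 mg/mL human liver microsomes and 0.5 mg/mL NADPH (final concentrations).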

[3] = p53 small molecule agonists, cell-based qHTS assay with rat liver microsomes (AID 1963578); settings: HCT-116 p53RE-bla, beta-lactamase ratio, 16 h; activation: at 66 µM (top of the series) unless noted
Procedure, shortened: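 Compound in DMSO added to p53RE-bla cells 5 h post-plating; rat microsomes/NADPH 0.5 mg/mL final; 16 h, 37 C; LiveBLAzer 2 h RT.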

[4] = cAMP Responsive Elements (CRE) small molecule agonists, cell-based qHTS assay (AID 1963590); settings: CRE-bla HEK293T, beta-lactamase FRET ratio, 3 h; activation: at 92.4 µM (top of the series) unless noted; for activation: % is set by controls: 0 for no effect and ±100 for the full control effect
Procedure, shortened: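 Cells carrying a CRE-driven beta-lactamase reporter (HEK 293T) are seeded, incubated overnight (18 h), and treated with test compounds for 3 h at 37 C; reporter activity is then detected with a FRET substrate after 2 h at room temperature.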

[5] = cAMP Responsive Elements (CRE) small molecule antagonists, cell-based qHTS assay (AID 1963591; active = well fitted inhibition curve with a large enough effect in the signal ratio in the repeat runs, not every such curve was filed as active; inconclusive = weak or mixed curves, or effect the other way; the % refers to the signal ratio); settings: CRE-bla HEK293T, beta-lactamase FRET ratio; activity change, negative = inhibition: at 92.4 µM (top of the series) unless noted
Procedure, shortened: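 Cells (CRE-bla HEK 293T, DMEM with 10% dialyzed FBS and 25 mM HEPES) are seeded and incubated 18 h. Compounds are added with NKH477 agonist at 0.25 uM final for 3 h, then FRET substrate for 2 h.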

[6] = target: Beta-2 adrenergic receptor (Homo sapiens) (UniProt P07550); experiment: Adrenergic beta2 receptor (ADRB2) small molecule agonists, cell-based qHTS assay (AID 1963593); settings: CHO-ADRB2 cells, cAMP HTRF, 30 min; activation: at 92.4 µM (top of the series) unless noted;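 for activation: CHO cells stably overexpressing human ADRB2; % is set by controls: 0 for no effect and ±100 for the full control effect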
Procedure, shortened: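 CHO cells stably over-expressing ADRB2 were plated overnight at 37C, then dosed with compounds plus a stimulation mix containing 100uM IBMX and 25uM Ro-20-1724 for 0.5hr at room temperature. cAMP was measured by HTRF competition, 1hr.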

[7] = p53 small molecule agonists, cell-based qHTS assay with human liver microsomes: qHTS cell viability counter screen (AID 1963579); note: nearly all actives have a fitted effect of over 45% in size
Procedure, shortened: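 HLM-supplemented (0.5 mg/mL final) and NADPH-supplemented (0.5 mg/mL final) p53RE-bla cultures, 4,000 cells per well, were dosed with compounds in DMSO for 16 h at 37 C; luminescent ATP detection (CellTiter-Glo, 30 min, room temperature) quantified surviving cells.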

[8] = p53 small molecule agonists, cell-based qHTS assay with rat liver microsomes: qHTS cell viability counter screen (AID 1963580); note: nearly all actives have a fitted effect of over 45% in size
Procedure, shortened: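 Cytotoxicity counter screen: intracellular ATP read by CellTiter-Glo luminescence in the p53 reporter wells. HCT-116 p53RE-bla cells were treated for 16 h at 37 C alongside rat liver microsomes and NADPH, each 0.5 mg/mL final.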

[9] = p53 small molecule agonists, cell-based qHTS assay: qHTS cell viability counter screen (AID 1963581); note: nearly all actives have a fitted effect of over 45% in size
Procedure, shortened: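 Viability was counter-screened in parallel with the p53 agonist reporter by measuring intracellular ATP luminescence in the same HCT-116 p53RE-bla wells after 16 h compound treatment at 37 C.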

[10] = target: D(2) dopamine receptor (Homo sapiens) (UniProt P14416); experiment: Dopamine D2 receptor (DRD2) small molecule antagonists, cell-based qHTS assay (AID 1963595; active = well fitted inhibition curve with a large enough effect in the signal ratio in the repeat runs, with a control signal flat; inconclusive = weak or mixed curves, or effect the other way; the % refers to the signal ratio); settings: HEK293-DRD2 cAMP HTRF antagonist mode; activity change, negative = inhibition: at 92.4 µM (top of the series) unless noted
Procedure, shortened: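 Stable D2 receptor HEK293 line, 24 h after seeding. Compound preincubated 10 min, then quinpirole (12 nM) with forskolin analogue NKH477 (200 nM), 30 min, room temperature. Detection by time-resolved FRET of cAMP.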

[11] = p53 small molecule agonists, cell-based qHTS assay (AID 1963582; active = well fitted activation curve with a large enough effect in the signal ratio in the repeat runs, not every such curve was filed as active; inconclusive = weak or mixed curves; the % refers to the signal ratio); settings: HCT-116 p53RE-bla reporter, beta-lactamase FRET ratio, 16 h; activation: at 66 µM (top of the series) unless noted
Procedure, shortened: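 Cells carrying a p53-responsive bla reporter are treated with test compounds for 16 h at 37 C; beta-lactamase activity is then detected with LiveBLAzer B/G FRET substrate after 2 h at room temperature.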

[12] = target: 5-hydroxytryptamine receptor 2A (Homo sapiens) (UniProt P28223); experiment: 5-hydroxytryptamine receptor 2A (HTR2A) small molecule agonists, cell-based qHTS assay (AID 1963587); settings: HTR2A-CHO cells, calcium flux fluorescence, agonist mode; activation: at 76.8 µM (top of the series); note: nearly all actives have a fitted effect of over 30% in size
Procedure, shortened: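 Kinetic calcium-flux fluorescence (2 min, 1 sec intervals) after compound addition in agonist mode. HTR2A-CHO cells were cultured 18 h, then dye-loaded 1 h at 37 C.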

[13] = target: D(2) dopamine receptor (Homo sapiens) (UniProt P14416); experiment: Dopamine D2 receptor (DRD2) small molecule agonists, cell-based qHTS assay (AID 1963594); settings: HEK293-DRD2 cAMP HTRF, agonist mode, 30 min; activation: at 92.4 µM (top of the series) unless noted; note: nearly all actives have a fitted effect of over 35% in size
Procedure, shortened: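 cAMP accumulation in DRD2-HEK293 cells measured by HTRF after 1 h detection; compounds added 10 min before NKH477 (200nM […]) forskolin-analogue stimulation, 30 min at room temperature, with Ro20-1724 present at 0.1 mM final.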
Potency is the fitted concentration of half-maximal effect.

| Compound | Potency [1] | Potency [2] | Potency [3] | Potency [4] | Potency [5] | Potency [6] | activation [2] | Potency [7] | Potency [8] | Potency [9] | Potency [10] | Potency [11] | Potency [12] | Potency [13] | activation [6] |
| --- | --- | --- | --- | --- | --- | --- | --- | --- | --- | --- | --- | --- | --- | --- | --- |
| COP(=O)(OC)O/C(=C\Cl)c1cc(Cl)c(Cl)cc1Cl | active: 68.6 µM | active: 40.8 µM | inconclusive: 6.46 µM [fluorescent, partial curve] | inactive | inconclusive: 68.6 µM [activator, partial curve, poor fit] | inactive | – | – | – | – | – | – | – | – | – |
| O=[N+]([O-])c1ccc(Cl)c([N+](=O)[O-])c1 | active: 15.6 µM and inconclusive: 15.4 µM [activator, single point] | – | – | – | – | inconclusive: 55.3 µM [activator] and inconclusive: 12.2 µM [activator, full curve, poor fit] | inconclusive: -15.4% | active: 36.9 µM and active: 40.8 µM | inconclusive: 46.5 µM [cytotoxic, single point] and active: 40.8 µM | active: 26.1 µM and inconclusive: 51.3 µM [cytotoxic, single point] | inconclusive: 54.5 µM [inhibitor] | – | – | – | – |
| CCOC(=O)CC(SP(=S)(OC)OC)C(=O)OCC (stereo not given) | active: 24.3 µM and inconclusive: 33.5 µM [activator] | inconclusive: 12.9 µM [fluorescent, full curve] | inconclusive: 13.7 µM [fluorescent] and inconclusive: 19.9 µM [fluorescent] | inconclusive: 0.0015 µM [rising, full curve, poor fit] | inconclusive: 32.5 µM [activator] | inconclusive: 1.09 µM [inhibitor, full curve, poor fit] and inactive | – | inconclusive: 7.07 µM [rising, partial curve] | – | inconclusive: 5.13 µM [rising, partial curve, poor fit] | – | inconclusive: 20.4 µM [activator, partial curve, poor fit] | inconclusive: 27.5 µM [activator, partial curve, poor fit] | inconclusive: 16.6 µM | – |
| CCOP(=S)(Oc1cnc(C(C)(C)C)nc1)OC(C)C (stereo not given) | inconclusive: 54.5 µM [activator, partial curve] | inconclusive: 2.04 µM [fluorescent, full curve] | inconclusive: 2.29 µM [fluorescent] | inconclusive: 54.5 µM [rising, partial curve] | inconclusive: 54.5 µM [partial curve] | – | – | – | – | – | – | – | – | – | inconclusive: 19.9% |
